Data from article PMC5128727, “Metalloprotease SPRTN/DVC1 Orchestrates Replication-Coupled DNA-Protein Crosslink Repair”.

Target: T1, SPRTN-Strep-Strep-His (SSH) (human) (UniProt Q9H040)
T1 sequence: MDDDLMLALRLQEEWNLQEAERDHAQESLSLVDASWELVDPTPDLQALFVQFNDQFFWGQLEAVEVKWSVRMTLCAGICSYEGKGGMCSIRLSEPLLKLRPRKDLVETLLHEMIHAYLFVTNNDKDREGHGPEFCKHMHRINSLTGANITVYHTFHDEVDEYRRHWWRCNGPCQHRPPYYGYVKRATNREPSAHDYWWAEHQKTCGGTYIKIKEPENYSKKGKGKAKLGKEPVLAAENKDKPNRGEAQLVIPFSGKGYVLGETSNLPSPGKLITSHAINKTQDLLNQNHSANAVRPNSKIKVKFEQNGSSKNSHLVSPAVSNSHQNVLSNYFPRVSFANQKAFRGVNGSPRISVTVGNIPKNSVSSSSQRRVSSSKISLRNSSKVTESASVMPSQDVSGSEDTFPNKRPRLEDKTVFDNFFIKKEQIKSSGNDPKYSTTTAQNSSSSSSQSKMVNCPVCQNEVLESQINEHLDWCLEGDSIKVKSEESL
Assay: co-IP; SPRTN-SSH isolated from total HEK293 cell extracts over Streptactin sepharose under high salt and detergent conditions; partners detected by blot

binding: binds
Substance: DNA polymerase δ (human (endogenous in HEK293))

Results are given in words; binding and its absence hold for the method and conditions named. In cells and extracts the contact can be indirect. Binding calls can cover weak binding; strength is not graded here. Sequences can lack the tags named with a protein.
